According to patent US5580958:
Where cells or extracts were used, other partners may take part. No signal at the amounts used counts as a negative.

The chains behind the UniProt entries cited, without tags or fusion partners. Residues count along the entry.
UniProt P00722, 2-1024: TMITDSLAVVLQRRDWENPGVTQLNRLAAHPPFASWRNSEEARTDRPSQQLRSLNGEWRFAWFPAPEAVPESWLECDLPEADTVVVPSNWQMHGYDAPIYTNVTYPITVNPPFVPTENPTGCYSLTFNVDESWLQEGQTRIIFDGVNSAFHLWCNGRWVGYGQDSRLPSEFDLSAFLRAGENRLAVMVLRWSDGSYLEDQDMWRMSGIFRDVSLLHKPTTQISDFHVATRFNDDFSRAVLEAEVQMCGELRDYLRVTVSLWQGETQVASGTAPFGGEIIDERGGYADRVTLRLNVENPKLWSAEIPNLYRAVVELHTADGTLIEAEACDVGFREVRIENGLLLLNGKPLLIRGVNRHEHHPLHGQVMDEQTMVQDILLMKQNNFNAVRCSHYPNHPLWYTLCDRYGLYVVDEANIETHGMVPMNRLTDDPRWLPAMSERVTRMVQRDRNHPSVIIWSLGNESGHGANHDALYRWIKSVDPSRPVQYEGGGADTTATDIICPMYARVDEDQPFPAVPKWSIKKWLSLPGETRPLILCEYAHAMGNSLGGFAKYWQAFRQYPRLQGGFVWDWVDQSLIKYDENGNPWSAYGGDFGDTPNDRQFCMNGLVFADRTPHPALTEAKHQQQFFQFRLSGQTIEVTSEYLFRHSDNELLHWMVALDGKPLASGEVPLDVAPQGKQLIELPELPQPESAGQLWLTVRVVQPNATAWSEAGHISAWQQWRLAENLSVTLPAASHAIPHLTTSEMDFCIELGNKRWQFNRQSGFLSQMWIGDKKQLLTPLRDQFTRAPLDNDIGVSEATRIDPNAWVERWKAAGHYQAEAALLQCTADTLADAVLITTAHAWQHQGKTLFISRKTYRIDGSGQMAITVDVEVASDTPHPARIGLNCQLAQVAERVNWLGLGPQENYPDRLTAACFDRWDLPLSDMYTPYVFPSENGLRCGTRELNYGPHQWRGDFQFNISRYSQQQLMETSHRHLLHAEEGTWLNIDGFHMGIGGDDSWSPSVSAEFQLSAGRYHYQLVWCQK

Target: beta-galactosidase (lambda-gt11 lysogen) (UniProt P00722)
Experiment: binding assay
Conditions: Southwestern, lambda-gt11 control lane; protein in an extract; label: 32P

GATCCGTCCCAAGTGAGGAACCAATCAGCATTG (double strand) [MHC class II I-A beta 33-mer (tetramer probe)]
binding result: no binding
